Test results from patent US20250345446A1 (Draupnir Bio ApS, priority 2022, published 2025).
Like-named read-outs stand apart in the source and are kept apart here. The structures given here were assigned with low confidence; some may be wrong.

By UniProt entry, the sequences of proteins in these tests, tags left out. Chains listed by the source or under a name are the forms on record and can include a tag or linker. Residues count along the entry.
UniProt Q99523, 34-756 with tags or gaps V650M: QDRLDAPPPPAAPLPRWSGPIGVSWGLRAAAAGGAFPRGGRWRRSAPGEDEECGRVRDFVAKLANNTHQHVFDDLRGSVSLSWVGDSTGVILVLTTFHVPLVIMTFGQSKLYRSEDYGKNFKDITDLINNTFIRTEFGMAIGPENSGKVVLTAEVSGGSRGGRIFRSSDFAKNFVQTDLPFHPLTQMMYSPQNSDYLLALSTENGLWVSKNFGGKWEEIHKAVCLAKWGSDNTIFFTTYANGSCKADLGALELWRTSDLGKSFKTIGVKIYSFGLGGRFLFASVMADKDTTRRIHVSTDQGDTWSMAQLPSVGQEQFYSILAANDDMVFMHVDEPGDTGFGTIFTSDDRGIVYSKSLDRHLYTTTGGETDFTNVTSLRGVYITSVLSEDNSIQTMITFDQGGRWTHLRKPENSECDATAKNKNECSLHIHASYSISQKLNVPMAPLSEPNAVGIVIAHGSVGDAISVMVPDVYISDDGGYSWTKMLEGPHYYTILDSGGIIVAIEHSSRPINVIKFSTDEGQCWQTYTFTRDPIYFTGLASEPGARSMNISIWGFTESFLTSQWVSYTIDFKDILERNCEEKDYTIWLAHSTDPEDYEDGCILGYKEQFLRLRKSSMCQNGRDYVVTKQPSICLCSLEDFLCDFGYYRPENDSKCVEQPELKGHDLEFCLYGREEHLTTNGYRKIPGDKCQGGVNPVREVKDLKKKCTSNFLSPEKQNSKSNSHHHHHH
UniProt Q99523, 78-756 with tags or gaps V650M limits assumed: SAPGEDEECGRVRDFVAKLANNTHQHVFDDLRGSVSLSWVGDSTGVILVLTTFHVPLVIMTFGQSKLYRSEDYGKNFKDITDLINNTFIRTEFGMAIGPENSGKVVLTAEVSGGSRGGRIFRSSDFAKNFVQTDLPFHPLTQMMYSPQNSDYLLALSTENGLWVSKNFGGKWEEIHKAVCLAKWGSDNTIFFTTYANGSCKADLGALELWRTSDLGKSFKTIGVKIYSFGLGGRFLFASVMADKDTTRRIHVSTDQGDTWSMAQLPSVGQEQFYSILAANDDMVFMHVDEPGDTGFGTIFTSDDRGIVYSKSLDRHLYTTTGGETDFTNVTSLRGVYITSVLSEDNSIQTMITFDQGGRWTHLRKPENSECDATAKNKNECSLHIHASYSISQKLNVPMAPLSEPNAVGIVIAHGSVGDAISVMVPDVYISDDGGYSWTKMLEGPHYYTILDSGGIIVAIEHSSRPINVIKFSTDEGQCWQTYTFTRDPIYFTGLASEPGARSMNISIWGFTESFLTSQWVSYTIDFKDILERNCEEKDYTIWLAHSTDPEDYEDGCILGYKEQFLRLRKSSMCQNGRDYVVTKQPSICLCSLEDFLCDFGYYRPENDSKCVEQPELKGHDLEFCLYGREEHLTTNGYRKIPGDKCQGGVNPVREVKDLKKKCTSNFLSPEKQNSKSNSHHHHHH
UniProt P22629, 25-183 limits assumed: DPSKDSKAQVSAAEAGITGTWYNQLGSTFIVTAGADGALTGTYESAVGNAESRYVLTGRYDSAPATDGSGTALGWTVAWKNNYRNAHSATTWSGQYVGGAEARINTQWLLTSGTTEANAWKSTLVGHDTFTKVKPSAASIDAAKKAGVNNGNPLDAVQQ

Assays:
[1] = target: soluble ectodomain of sortilin-6his (Homo sapiens, UniProt Q99523, V650M); experiment: MST binding to soluble ectodomain of sortilin-6his
[2] = tested on: HEK293 cells expressing full length sortilin receptor; experiment: Cellular uptake of NA650 in HEK293/sortilin cells; settings: 3 h incubation, 9.8 nM to 10 μM, NA650 100 nM
[3] = target: streptavidin, bifunctional compound and sortilin-6his (UniProt P22629+Q99523, V650M); settings: streptavidin-d2 and sortilin-6His

Compound	KD score, binding to sortilin (Kd) ([1]; Table 1, biotin-linker-peptide bifunctional compounds, MST)	KD score, binding to sortilin (Kd) [1]	binding to sortilin-6his in MST (in words) ([1]; MST, fluorescent sortilin-6his (100 nM))	cell associated FI signal, response to concentration series (in words) [2]	proximity induced HTRF ratio as function of compound concentration (in words) [3]
O=C(O)CNC(=O)CNC(=O)[C@H](CO)NC(=O)CNC(=O)CNC(=O)CNC(=O)CNC(=O)[C@H](CO)NC(=O)CNC(=O)CNC(=O)CNC(=O)CNC(=O)[C@H](CO)NC(=O)CNC(=O)CNC(=O)CCCC[C@@H]1SC[C@@H]2NC(=O)N[C@@H]21	no binding	–	–	–	–
CC(C)C[C@H](NC(=O)[C@H](CC(C)C)NC(=O)[C@H](CCC(N)=O)NC(=O)[C@H](CCCNC(=N)N)NC(=O)CNC(=O)CNC(=O)[C@H](CO)NC(=O)CNC(=O)CNC(=O)CNC(=O)CNC(=O)[C@H](CO)NC(=O)CNC(=O)CNC(=O)CNC(=O)CNC(=O)[C@H](CO)NC(=O)CNC(=O)CNC(=O)CCCC[C@@H]1SC[C@@H]2NC(=O)N[C@@H]21)C(N)=O	–	no binding	incapable of binding	bell-shaped response	did not induce dose-dependent increase in HTRF ratio
